The whole screen tested about 400,000 compounds, of which about 13,000 (3.2%) were called active. This list was built around the results that the source calls inconclusive (neither active nor inactive); the mix of calls is not that of the screen. Calls come from the whole dose curve; as a rule, active = well fitted cell-killing curve with a large enough effect; inconclusive = small, poorly fitted or top-dose-only effect, or effect the other way; inactive = flat fitted curve, though single readings scatter. Potencies of inconclusive entries are doubtful fits and often do not repeat.
Assay: qHTS assay for MDR1-selective chemotherapeutics: Primary screen using the drug-selected MDR subline cells KB-V1; note: nearly all actives have a fitted effect of over 60% in size
Conditions: KB-V1 MDR cells viability, CellTiter-Glo, 72 h; activity change, negative = cytotoxicity: at 46.1 µM (top of the series)
Outline: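 qHTS viability screen in drug-selected KB-V1 MDR cells: 72 h compound treatment at 37 degrees C, ATP luminescence end point.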
% is set by controls: 0 for no effect and ±100 for the full control effect; potency is the fitted concentration of half-maximal effect.

Row | Compound | Potency | activity change, negative = cytotoxicity
1 | COC(=O)[C@]1(CC(C)C)N[C@H](c2ccc(-c3ccc(F)cc3)c(OC)c2)[C@@H]2C(=O)N(C)C(=O)[C@@H]21 | inconclusive: 29.1 µM [cytotoxic, single point] | 
2 | O=C(NCc1ccccc1)C(c1cccnc1)N(C(=O)c1ccccn1)c1ccccc1F (stereo not given) | inconclusive: 23.1 µM [rising, single point] | 
3 | Cc1ccccc1OCCn1cc(C(=S)N2CCCC2)c2ccccc21 | inconclusive: 10.3 µM [cytotoxic, partial curve] | 
4 | CCSc1ncnc2nc[nH]c12 | inconclusive: 14.6 µM [cytotoxic, single point] | 
5 | CC1(C(=O)NS(=O)(=O)Cc2cccc(Cl)c2)CCN1C(=O)Cc1cccs1 (stereo not given) | inactive | 
6 | NC(=O)c1ccsc1NC(=O)COC(=O)c1ccc(Cl)cc1 | inactive | 
7 | CC(C)Cc1nnc(NC(=O)Nc2ccccc2)s1 | inconclusive: 18.4 µM [cytotoxic, single point] | 
8 | CCc1nnc(NC(=O)CCC(=O)NCc2ccc(OC)cc2)s1 | inactive | 
9 | CC(C)N(Cc1ccccc1)C(=O)COC(=O)C1CCN(c2ccc(C(F)(F)F)cn2)CC1 | inconclusive: 29.1 µM [cytotoxic, single point] | 
10 | O=C(CCCc1nc2ccccc2s1)N1CCN(S(=O)(=O)c2cccs2)CC1 | active: 23.1 µM | 
11 | CCNC(=S)/C(=C(/[O-])c1ccc([N+](=O)[O-])cc1)[n+]1ccccc1 | inactive | 
12 | O=C(CN1C(=O)c2cccc3cccc1c23)NC1CCCC1 | inconclusive: 16.4 µM [cytotoxic, single point] | 
13 | COc1ccc(Br)cc1C(=O)Nc1ccc(NC(=O)c2ccco2)cc1 | inactive | 
14 | O=[N+]([O-])c1ccc(C2CCCC/C2=N/OCc2ccccc2F)c([N+](=O)[O-])c1 (stereo not given) | inconclusive: 16.4 µM [cytotoxic, single point] | 
15 | O=C(O)CSc1ccnc2cc(Cl)ccc12 | inconclusive: 5.8 µM [rising, full curve] | 
16 | COc1ccc(OCC(O)CNc2ccc(Br)cc2)cc1 (stereo not given) | inconclusive: 0.0052 µM [rising, full curve] | 
17 | O=C(Nc1cccnc1)Nc1cc(Cl)cc(Cl)c1 | inconclusive: 25.9 µM [cytotoxic, single point] | 
18 | CN(C)CCN1CCN(C2CN(Cc3cn(Cc4cccc(C(F)(F)F)c4)nn3)S(=O)(=O)C2)CC1 (stereo not given) | inactive | 
19 | CCOc1cc(C(=O)OCc2cc(=O)n3c(C)csc3n2)ccc1OC | inconclusive: 3.26 µM [cytotoxic, partial curve, poor fit] | 
20 | COCCn1nnnc1C(c1ccc2ncccc2c1)N1CCN(c2ccccc2F)CC1 (stereo not given) | inconclusive: 20.6 µM [cytotoxic, partial curve, poor fit] | 
21 | NC(=S)NN=C1c2cc(Cl)ccc2-c2c1cc(Cl)cc2[N+](=O)[O-] | active: 14.6 µM | 
22 | CCCSc1nnc2c(n1)OC(CC)N(C(C)=O)c1ccccc1-2 (stereo not given) | inactive | 
23 | CC(C)Oc1ccc(C(=O)N(Cc2ccco2)C2CCS(=O)(=O)C2)cc1 (stereo not given) | inconclusive: 16.4 µM [cytotoxic, partial curve] | 
24 | c1cc2[nH]c3ccncc3c2cn1 | inconclusive: 10.3 µM [rising, partial curve] | 

Given as tab-separated lines: part of the list above
Row	Compound	Potency	activity change, negative = cytotoxicity
10	O=C(CCCc1nc2ccccc2s1)N1CCN(S(=O)(=O)c2cccs2)CC1	active: 23.1 µM	
11	CCNC(=S)/C(=C(/[O-])c1ccc([N+](=O)[O-])cc1)[n+]1ccccc1	inactive	
12	O=C(CN1C(=O)c2cccc3cccc1c23)NC1CCCC1	inconclusive: 16.4 µM [cytotoxic, single point]	
13	COc1ccc(Br)cc1C(=O)Nc1ccc(NC(=O)c2ccco2)cc1	inactive	
14	O=[N+]([O-])c1ccc(C2CCCC/C2=N/OCc2ccccc2F)c([N+](=O)[O-])c1 (stereo not given)	inconclusive: 16.4 µM [cytotoxic, single point]	
15	O=C(O)CSc1ccnc2cc(Cl)ccc12	inconclusive: 5.8 µM [rising, full curve]	
16	COc1ccc(OCC(O)CNc2ccc(Br)cc2)cc1 (stereo not given)	inconclusive: 0.0052 µM [rising, full curve]	
17	O=C(Nc1cccnc1)Nc1cc(Cl)cc(Cl)c1	inconclusive: 25.9 µM [cytotoxic, single point]	
18	CN(C)CCN1CCN(C2CN(Cc3cn(Cc4cccc(C(F)(F)F)c4)nn3)S(=O)(=O)C2)CC1 (stereo not given)	inactive	
19	CCOc1cc(C(=O)OCc2cc(=O)n3c(C)csc3n2)ccc1OC	inconclusive: 3.26 µM [cytotoxic, partial curve, poor fit]	
20	COCCn1nnnc1C(c1ccc2ncccc2c1)N1CCN(c2ccccc2F)CC1 (stereo not given)	inconclusive: 20.6 µM [cytotoxic, partial curve, poor fit]	
21	NC(=S)NN=C1c2cc(Cl)ccc2-c2c1cc(Cl)cc2[N+](=O)[O-]	active: 14.6 µM	
22	CCCSc1nnc2c(n1)OC(CC)N(C(C)=O)c1ccccc1-2 (stereo not given)	inactive	
23	CC(C)Oc1ccc(C(=O)N(Cc2ccco2)C2CCS(=O)(=O)C2)cc1 (stereo not given)	inconclusive: 16.4 µM [cytotoxic, partial curve]	
24	c1cc2[nH]c3ccncc3c2cn1	inconclusive: 10.3 µM [rising, partial curve]	

(more compounds)

Row | Compound | Potency | activity change, negative = cytotoxicity
25 | CC(=O)Nc1c(O)nc(SCC(=O)Nc2sc3c(c2C#N)CCCCCC3)[nH]c1=O | inconclusive: 16.4 µM [cytotoxic, single point] | 
26 | COc1cccc(-n2cnc3sc(C)c(C)c3c2=O)c1 | active: 20.6 µM | 
27 | COc1ccccc1-c1cnc(C(O)c2cc(Cl)cc(Cl)c2)[nH]1 (stereo not given) | inactive | 
28 | COC(=O)C1=CN(c2c(C)cc(C)cc2C)C(N)=C(C#N)C1c1ccccc1 (stereo not given) | inconclusive: 14.6 µM [cytotoxic, partial curve] | 
29 | CC1(C)CC[C@]2(C(=O)n3ccnc3)CC[C@]3(C)[C@H](C(=O)C=C4[C@@]5(C)C=C(C#N)C(=O)C(C)(C)[C@@H]5CC[C@]43C)[C@@H]2C1 | inconclusive: 29.1 µM [cytotoxic, partial curve, poor fit] | 
30 | O=C(c1ccc(F)cc1)C1CCN(Cc2ccc(F)cc2)CC1 | inconclusive: 32.6 µM [cytotoxic, single point] | 
31 | Nc1nc(N)c2[nH]cnc2n1 | inconclusive: 29.1 µM [cytotoxic, single point] | 
32 | CN1CCc2c(OCC(=O)N3CCC(Cc4ccccc4)CC3)cccc2C1=O | inconclusive: 2.59 µM [cytotoxic, full curve, poor fit] | 
33 | CN(C)c1nc2n(c(=S)n1)CCS2 | inactive | 
34 | CCN(CC)C(=O)CSc1ncnc2sc(C)c(C)c12 | inconclusive: 18.4 µM [cytotoxic, partial curve] | 
35 | CC1=C(c2ccc(C)c(C)c2)S(=O)(=O)N(Cc2ccc(C(=O)NCc3ccc(C)cc3)cc2)C1=O | inactive | 
36 | Cc1cc2occ(CC(=O)Nc3nccs3)c2cc1C(C)C | inconclusive: 29.1 µM [cytotoxic, partial curve, poor fit] | 
37 | CCCCN(CCC#N)c1ccc(/C=C/c2ccnc3ccccc23)cc1 | active: 18.4 µM | 
38 | Cc1cccc(CCN2C(N(C)C)=NC[C@@H]2Cc2ccccc2)c1 | inconclusive: 16.4 µM [rising, single point] | 
39 | COc1ccc(N2CCN(S(=O)(=O)c3c(C)nc4sc(C)cn4c3=O)CC2)cc1 | inactive | 
40 | COc1cc(/C=N/N2CCN(C3c4ccccc4-c4ccccc43)CC2)ccc1O | inconclusive: 18.4 µM [cytotoxic, single point] | 
41 | O=C(c1ccc(Cl)cc1)N1CCC(O)(CSc2ccc(Cl)cc2)CC1 | inactive | 
42 | Cc1ccc(-c2nnc(SC(C)C(=O)NCc3ccco3)n2C)cc1 (stereo not given) | inactive | 
43 | Cc1ccc(N2C(=O)C3CCC(c4ccccc4)CC3C2=O)cc1 (stereo not given) | inconclusive: 29.1 µM [cytotoxic, single point] | 
44 | CNc1ccc(/C=C2\CSc3ccccc3C2=O)cc1[N+](=O)[O-] | inconclusive: 25.9 µM [cytotoxic, single point] | 
45 | CN(c1ccccc1)S(=O)(=O)c1cccc(NC(=O)Cn2cnc3ccccc3c2=O)c1 | active: 23.1 µM | 
46 | CCOC(=O)c1ccccc1NC(=O)COC(=O)c1ccc(OCC(=O)N2CCOCC2)c(OCC)c1 | active: 2.59 µM | 
47 | CCN(C(=O)COC(=O)CSc1ccc([N+](=O)[O-])cc1)C1CCS(=O)(=O)C1 (stereo not given) | inconclusive: 20.6 µM [cytotoxic, single point] | 
48 | CCc1ccc(C2C(C#N)=C(N)Oc3n[nH]c(CC(=O)OC)c32)cc1 (stereo not given) | inconclusive: 29.1 µM [cytotoxic, single point] | 

Row | Compound | Potency | activity change, negative = cytotoxicity
49 | Cc1ccc(NC(=O)c2ccccc2NC(=O)Cc2ccccc2)cc1 | inconclusive: 20.6 µM [cytotoxic, single point] | 
50 | O=C(CCCn1c(SCC(=O)NCC2CCCO2)nc2ccccc2c1=O)NCc1ccccc1 (stereo not given) | inactive | 
51 | CC1=C(C(=O)Nc2ccc(C)c(C)c2)C2(CCCCCC2)OC1=O | inactive | 
52 | COc1ccc(OC)c(-c2cc(C(=O)N3CCN(c4ncccn4)CC3)c3ccccc3n2)c1 | inconclusive: 2.91 µM [cytotoxic, full curve, poor fit] | 
53 | Cc1ccc(S(=O)(=O)N(c2cccc(C)c2)C2CCS(=O)(=O)C2)cc1 (stereo not given) | active: 16.4 µM | 
54 | O=C1OC(Cc2ccccc2)(c2ccccc2)c2ccccc21 (stereo not given) | inconclusive: 29.1 µM [cytotoxic, single point] | 
55 | CSCCC(c1nc2ccccc2[nH]1)n1c(-c2cc(C(F)(F)F)cc(C(F)(F)F)c2)nc2ccccc21 (stereo not given) | inconclusive: 25.9 µM [cytotoxic, partial curve, poor fit] | 
56 | O=C(COC(=O)Cc1ccc(Br)cc1)NCc1ccccc1 | inactive | 
57 | O=C(Nc1ccc2c(c1)OCO2)Nc1ccccc1F | inconclusive: 18.4 µM [cytotoxic, single point] | 
58 | Cc1cccc(CSc2ncc(Cl)c(C(=O)Nc3sc4c(c3C#N)CCCC4)n2)c1 | inactive | 
59 | C=CCN(CC=C)C(=O)C1CC(=O)N(c2ccc(Br)cc2)C1 (stereo not given) | inconclusive: 9.2 µM [cytotoxic, partial curve] | 
60 | CCOC(=O)c1cnc(-n2nc(C)cc2C)nc1NNc1cc(C)nc(-c2ccccc2)n1 | inconclusive: 0.411 µM [cytotoxic, full curve, poor fit] | 
61 | Cc1cccc(C)c1OCc1nc2ccccc2c(=O)n1/N=C/c1c[nH]c2ccccc12 | inconclusive: 16.4 µM [cytotoxic, single point] | 
62 | Fc1c(CSC(=S)N2CCOCC2)cccc1CSC(=S)N1CCOCC1 | inconclusive: 13 µM [cytotoxic, partial curve, poor fit] | 
63 | O=C(c1ccc2c3n(nc2c1)-c1ccccc1CO3)N1CCOCC1 | inconclusive: 25.9 µM [cytotoxic, partial curve, poor fit] | 
64 | OC(C[n+]1ccccc1)c1ccccc1 (stereo not given) | inactive | 
65 | CCN(CC)c1nc2c(S(=O)(=O)c3ccc(C)cc3)nnn2c2ccsc12 | inactive | 
66 | CCOc1ccc(NC(=O)CN(C)C(=O)c2cn(-c3ccc(F)cc3)nc2-c2cccc(OC)c2)cc1OCC | inconclusive: 16.4 µM [cytotoxic, single point] | 
67 | Cc1n[nH]c(=O)n1-c1ccc(OC(F)(F)F)cc1 |  | inconclusive: 0%
68 | COc1ccc(CCNC(=S)Nc2cc(C)ccc2C)cc1 | inconclusive: 29.1 µM [cytotoxic, single point] | 
69 | CCOC(=O)c1c(C)[nH]c(C)c1S(=O)(=O)N1CCN(c2ccc(Cl)cc2)CC1 | inactive | 
70 | O=C(OCc1ccccc1F)c1cnc(Cl)c(Cl)c1 | inconclusive: 5.17 µM [rising, partial curve, poor fit] | 

Source: PubChem BioAssay AID1347076 (National Center for Advancing Translational Sciences (NCATS), 2019)
